Data published in the supplement of paper PMC10849652.
This is one part of the list.

Sequences of proteins named here, by UniProt entry; tags and fusion partners are left off. A change or cut given only in a name is not applied to a line headed by its entry.
UniProt Q5JS54: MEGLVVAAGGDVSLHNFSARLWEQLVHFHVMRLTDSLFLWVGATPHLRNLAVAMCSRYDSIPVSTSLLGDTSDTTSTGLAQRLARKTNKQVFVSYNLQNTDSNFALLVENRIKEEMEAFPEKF
UniProt P55036: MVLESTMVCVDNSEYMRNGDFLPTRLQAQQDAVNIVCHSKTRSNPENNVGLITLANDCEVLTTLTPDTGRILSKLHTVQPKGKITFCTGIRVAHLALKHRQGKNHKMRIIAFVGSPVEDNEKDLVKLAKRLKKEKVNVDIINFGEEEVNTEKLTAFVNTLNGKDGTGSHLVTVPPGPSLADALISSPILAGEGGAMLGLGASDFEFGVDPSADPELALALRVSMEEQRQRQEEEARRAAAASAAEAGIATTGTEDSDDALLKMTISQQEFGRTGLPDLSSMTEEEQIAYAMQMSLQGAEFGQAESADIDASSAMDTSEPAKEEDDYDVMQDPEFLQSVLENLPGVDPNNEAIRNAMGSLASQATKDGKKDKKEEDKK
UniProt Q12974: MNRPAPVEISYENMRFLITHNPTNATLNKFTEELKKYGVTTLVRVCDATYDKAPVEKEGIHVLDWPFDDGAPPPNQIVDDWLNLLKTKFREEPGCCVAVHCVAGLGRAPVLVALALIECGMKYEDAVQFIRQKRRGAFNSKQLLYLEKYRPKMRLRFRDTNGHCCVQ
UniProt Q9H0K6: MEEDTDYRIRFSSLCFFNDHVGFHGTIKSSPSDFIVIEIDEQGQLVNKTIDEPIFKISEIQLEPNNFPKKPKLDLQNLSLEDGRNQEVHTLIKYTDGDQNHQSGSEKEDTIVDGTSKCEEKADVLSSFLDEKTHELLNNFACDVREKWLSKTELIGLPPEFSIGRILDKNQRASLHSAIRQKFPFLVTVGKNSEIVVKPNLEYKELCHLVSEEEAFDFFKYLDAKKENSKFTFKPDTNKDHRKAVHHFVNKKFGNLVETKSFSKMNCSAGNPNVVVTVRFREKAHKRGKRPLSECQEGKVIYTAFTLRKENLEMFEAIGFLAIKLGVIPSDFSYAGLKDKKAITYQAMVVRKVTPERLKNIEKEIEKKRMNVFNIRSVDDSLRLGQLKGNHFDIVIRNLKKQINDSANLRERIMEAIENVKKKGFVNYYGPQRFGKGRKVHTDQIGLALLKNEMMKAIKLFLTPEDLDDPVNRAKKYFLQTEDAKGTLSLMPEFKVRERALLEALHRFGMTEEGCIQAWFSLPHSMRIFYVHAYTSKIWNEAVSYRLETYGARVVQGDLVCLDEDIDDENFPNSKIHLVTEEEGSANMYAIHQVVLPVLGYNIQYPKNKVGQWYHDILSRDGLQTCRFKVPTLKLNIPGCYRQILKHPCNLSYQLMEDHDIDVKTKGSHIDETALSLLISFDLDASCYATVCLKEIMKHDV
UniProt Q9NXS2: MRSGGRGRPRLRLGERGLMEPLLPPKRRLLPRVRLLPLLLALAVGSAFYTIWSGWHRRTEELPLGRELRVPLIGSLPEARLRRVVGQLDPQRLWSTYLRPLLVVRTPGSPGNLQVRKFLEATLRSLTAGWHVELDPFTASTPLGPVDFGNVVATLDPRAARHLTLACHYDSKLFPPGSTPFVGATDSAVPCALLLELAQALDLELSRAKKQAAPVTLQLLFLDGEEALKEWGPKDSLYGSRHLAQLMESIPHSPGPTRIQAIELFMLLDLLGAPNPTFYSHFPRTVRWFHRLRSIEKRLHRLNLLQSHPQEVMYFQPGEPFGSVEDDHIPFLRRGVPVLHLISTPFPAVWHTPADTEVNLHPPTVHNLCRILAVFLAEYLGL
UniProt P20962: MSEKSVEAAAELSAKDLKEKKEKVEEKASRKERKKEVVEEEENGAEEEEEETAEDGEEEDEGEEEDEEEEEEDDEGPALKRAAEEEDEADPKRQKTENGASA
UniProt Q9H974: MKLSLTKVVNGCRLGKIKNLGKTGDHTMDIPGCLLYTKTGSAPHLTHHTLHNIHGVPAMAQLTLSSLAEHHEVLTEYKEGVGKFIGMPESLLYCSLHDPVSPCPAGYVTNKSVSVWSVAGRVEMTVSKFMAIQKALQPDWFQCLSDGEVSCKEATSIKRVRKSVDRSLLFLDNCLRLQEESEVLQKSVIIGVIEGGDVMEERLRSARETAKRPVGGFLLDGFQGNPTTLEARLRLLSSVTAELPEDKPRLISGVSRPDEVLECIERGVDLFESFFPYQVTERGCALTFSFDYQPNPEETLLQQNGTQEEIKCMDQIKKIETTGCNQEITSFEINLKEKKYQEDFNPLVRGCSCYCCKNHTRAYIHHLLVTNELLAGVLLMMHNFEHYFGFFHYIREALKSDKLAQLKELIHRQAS
UniProt Q9ULZ3, whole entry, looked up: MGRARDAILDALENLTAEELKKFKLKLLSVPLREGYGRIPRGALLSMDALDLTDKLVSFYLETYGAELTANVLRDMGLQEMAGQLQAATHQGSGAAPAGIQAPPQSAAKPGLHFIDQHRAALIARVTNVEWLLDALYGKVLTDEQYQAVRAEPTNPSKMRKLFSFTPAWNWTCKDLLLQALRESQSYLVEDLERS
UniProt P61289: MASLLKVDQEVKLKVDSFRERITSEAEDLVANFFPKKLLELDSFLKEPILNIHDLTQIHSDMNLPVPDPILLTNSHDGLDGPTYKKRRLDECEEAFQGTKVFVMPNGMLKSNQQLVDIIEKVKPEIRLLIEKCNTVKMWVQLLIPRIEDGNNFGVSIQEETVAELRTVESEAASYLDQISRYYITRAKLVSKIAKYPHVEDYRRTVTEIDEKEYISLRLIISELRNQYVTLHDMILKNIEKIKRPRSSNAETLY
UniProt P25787: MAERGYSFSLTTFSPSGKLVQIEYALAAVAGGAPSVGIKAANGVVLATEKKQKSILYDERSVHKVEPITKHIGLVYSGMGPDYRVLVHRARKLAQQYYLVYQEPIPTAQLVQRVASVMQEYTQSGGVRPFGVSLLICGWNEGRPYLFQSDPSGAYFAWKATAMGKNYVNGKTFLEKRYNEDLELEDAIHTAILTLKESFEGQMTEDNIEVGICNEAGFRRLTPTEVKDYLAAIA
UniProt Q6ZRP7: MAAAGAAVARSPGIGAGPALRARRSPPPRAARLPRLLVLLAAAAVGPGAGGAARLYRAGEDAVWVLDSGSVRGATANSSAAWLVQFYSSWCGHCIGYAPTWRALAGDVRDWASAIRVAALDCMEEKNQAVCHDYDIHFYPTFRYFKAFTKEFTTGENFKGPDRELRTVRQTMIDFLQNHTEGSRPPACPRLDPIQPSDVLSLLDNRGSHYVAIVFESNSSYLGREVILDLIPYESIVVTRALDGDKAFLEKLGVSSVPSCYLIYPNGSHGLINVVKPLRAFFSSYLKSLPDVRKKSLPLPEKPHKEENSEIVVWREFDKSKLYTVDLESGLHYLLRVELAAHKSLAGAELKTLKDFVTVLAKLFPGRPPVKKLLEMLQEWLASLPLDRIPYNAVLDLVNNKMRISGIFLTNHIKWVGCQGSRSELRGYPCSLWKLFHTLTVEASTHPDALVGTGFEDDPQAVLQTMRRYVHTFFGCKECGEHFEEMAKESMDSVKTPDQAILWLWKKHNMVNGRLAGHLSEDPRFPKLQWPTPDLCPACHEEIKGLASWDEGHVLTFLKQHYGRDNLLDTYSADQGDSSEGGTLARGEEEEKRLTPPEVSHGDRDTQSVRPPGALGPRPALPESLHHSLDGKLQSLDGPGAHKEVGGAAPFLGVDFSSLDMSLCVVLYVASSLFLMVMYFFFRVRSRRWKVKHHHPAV
UniProt O00391: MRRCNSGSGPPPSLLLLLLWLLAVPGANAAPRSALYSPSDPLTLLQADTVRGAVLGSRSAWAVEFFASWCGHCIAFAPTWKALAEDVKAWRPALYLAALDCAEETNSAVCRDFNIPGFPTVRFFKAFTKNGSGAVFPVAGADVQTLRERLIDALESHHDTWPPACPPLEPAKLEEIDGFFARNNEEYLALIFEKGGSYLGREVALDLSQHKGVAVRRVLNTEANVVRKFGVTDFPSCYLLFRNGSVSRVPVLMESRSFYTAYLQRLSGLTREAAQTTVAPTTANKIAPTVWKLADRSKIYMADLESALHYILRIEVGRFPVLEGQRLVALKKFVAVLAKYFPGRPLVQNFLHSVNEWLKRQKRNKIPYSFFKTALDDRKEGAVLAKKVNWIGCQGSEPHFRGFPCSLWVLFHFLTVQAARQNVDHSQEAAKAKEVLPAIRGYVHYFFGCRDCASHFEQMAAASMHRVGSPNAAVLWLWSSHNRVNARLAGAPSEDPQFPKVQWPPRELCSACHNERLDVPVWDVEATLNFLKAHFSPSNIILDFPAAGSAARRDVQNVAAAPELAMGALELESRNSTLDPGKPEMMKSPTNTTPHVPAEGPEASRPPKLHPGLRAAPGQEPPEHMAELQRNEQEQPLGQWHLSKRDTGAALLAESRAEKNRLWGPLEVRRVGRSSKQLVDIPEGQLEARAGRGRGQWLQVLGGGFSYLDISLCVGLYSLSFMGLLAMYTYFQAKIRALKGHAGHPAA
UniProt Q9UL46, whole entry, looked up: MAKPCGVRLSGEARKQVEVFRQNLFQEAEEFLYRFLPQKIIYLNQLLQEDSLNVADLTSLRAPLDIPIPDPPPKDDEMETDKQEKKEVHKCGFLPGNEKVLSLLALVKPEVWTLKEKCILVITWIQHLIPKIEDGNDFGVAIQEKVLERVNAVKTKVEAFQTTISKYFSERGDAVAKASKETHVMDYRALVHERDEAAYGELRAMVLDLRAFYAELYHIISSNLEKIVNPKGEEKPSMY
UniProt Q7Z6K3: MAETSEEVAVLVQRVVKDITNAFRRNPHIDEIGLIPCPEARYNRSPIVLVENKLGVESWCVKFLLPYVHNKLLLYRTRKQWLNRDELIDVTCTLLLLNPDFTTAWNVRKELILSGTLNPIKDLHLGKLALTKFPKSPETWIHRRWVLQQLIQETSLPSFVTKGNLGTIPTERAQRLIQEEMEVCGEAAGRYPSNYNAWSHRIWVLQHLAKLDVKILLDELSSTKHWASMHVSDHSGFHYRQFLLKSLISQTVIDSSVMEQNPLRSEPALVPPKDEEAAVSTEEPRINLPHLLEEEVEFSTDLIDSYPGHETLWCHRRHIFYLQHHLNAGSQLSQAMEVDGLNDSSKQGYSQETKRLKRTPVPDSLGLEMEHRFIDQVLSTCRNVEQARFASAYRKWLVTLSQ
UniProt O14818: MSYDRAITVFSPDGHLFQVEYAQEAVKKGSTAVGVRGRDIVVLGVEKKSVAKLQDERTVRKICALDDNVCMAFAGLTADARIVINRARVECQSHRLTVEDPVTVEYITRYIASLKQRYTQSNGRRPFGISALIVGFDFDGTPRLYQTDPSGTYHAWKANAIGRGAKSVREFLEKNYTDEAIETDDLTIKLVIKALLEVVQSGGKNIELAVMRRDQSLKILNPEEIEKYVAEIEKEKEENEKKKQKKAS
UniProt Q9NR77: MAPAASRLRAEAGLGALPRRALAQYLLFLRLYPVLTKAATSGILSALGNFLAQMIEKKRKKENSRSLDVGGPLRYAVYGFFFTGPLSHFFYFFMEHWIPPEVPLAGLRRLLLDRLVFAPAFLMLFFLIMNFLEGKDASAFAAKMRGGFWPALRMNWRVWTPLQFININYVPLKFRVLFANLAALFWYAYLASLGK
UniProt Q9Y6I8: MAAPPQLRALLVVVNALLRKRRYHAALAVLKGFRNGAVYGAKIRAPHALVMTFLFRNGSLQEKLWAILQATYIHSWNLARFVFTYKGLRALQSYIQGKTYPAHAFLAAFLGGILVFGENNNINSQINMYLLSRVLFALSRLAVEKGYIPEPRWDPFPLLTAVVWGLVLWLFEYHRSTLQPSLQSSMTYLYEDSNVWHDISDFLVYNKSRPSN
UniProt Q9BRX8: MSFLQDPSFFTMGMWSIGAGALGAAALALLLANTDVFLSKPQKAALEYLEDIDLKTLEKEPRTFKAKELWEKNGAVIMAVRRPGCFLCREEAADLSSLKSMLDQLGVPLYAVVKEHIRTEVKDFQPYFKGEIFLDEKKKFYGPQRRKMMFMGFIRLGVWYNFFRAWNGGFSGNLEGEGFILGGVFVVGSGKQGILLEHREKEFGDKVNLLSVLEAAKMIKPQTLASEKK
UniProt Q9Y617: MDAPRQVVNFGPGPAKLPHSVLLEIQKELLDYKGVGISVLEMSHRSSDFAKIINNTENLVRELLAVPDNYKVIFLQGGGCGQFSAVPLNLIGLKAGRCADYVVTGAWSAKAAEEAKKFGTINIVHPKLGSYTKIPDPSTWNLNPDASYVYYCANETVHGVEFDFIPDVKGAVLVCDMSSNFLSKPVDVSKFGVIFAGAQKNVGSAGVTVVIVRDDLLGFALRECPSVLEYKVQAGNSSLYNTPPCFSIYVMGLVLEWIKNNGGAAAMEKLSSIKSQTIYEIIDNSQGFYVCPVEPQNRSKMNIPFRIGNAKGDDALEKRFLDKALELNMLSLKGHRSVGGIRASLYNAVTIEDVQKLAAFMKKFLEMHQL
UniProt Q08623: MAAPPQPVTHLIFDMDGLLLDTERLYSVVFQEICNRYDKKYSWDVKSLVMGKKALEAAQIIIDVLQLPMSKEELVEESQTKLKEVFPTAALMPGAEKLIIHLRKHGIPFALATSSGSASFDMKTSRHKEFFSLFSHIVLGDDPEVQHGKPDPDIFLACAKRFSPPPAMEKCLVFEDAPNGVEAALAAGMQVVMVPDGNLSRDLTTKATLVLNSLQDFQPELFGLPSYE

Experiments:
Assay in all cases: log2 fold change, soluble protein after heating vs DMSO (PISA); higher = thermal stabilisation; K562 cells, 10 uM, 30 min; active = over 0.2 and 3.5 SD of the protein, either way, in both replicates (recomputed)
saracatinib = compound: CN1CCN(CCOc2cc(OC3CCOCC3)c3c(Nc4c(Cl)ccc5c4OCO5)ncnc3c2)CC1 [saracatinib]
Outline: (§1)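 Thermal stability values are relative to control samples and come from duplicates. They are expressed as log2 fold changes. For measurement, K562 cells (2×10^6 cells/mL) received 10 μM compound for 30 min, and aliquots were heated for 3 min over 48°C-58°C, pooled, and extracted at 4°C in PBS with 0.5% NP-40. Soluble protein, the supernatant after 21,000xg for 90 min, was quantified by TMTpro 16plex LC-MS/MS with equalised channel sums.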

sotrastaurin = compound: CN1CCN(c2nc(C3=C(c4c[nH]c5ccccc45)C(=O)NC3=O)c3ccccc3n2)CC1 [sotrastaurin]
Outline: as §1

alvocidib = compound: CN1CC[C@H](c2c(O)cc(O)c3c(=O)cc(-c4ccccc4Cl)oc23)[C@H](O)C1 [alvocidib]
Outline: as §1

Tubastatin A = compound: CN1CCc2c(c3ccccc3n2Cc2ccc(C(=O)NO)cc2)C1 [Tubastatin A]
Outline: as §1

[1] = compound: CNC(=O)C1=CC=CC=C1NC2=NC(=NC=C2Cl)NC3=C(C=C(C=C3)N4CCOCC4)OC
Outline: as §1

defactinib = compound: CNC(=O)c1ccc(Nc2ncc(C(F)(F)F)c(NCc3nccnc3N(C)S(C)(=O)=O)n2)cc1 [defactinib]
Outline: as §1

rucaparib = compound: CNCc1ccc(-c2[nH]c3cc(F)cc4c3c2CCNC4=O)cc1 [rucaparib]
Outline: as §1

[2] = compound: CNc1nc(-c2ccc3c(N)n[nH]c3c2)cc(N2C[C@@H](C(=O)NC3CCCCC3)CC[C@H]2C)n1
Outline: as §1

encorafenib = compound: COC(=O)N[C@@H](C)CNc1nccc(-c2cn(C(C)C)nc2-c2cc(Cl)cc(NS(C)(=O)=O)c2F)n1 [encorafenib]
Outline: as §1

[3] = compound: COC(=O)[C@H](CCSC)NC(=O)C1=C(C=C(C=C1)NC[C@H](CS)N)C2=CC=CC=C2
Outline: as §1

Target	log2 fold change (saracatinib)	log2 fold change (sotrastaurin)	log2 fold change (alvocidib)	log2 fold change (Tubastatin A)	log2 fold change [1]	log2 fold change (defactinib)	log2 fold change (rucaparib)	log2 fold change [2]	log2 fold change (encorafenib)	log2 fold change [3]
PSAP isoform 3 (UniProt P07602)	inactive: -0.049	inactive: -0.019	inactive: 0.025	inactive: 0.024	inactive: 0.092	inactive: 0.044	inactive: -0.131	inactive: -0.034	inactive: 0.039	inactive: 0.018
PSMG2 (UniProt Q969U7)	inactive: 0.021	inactive: 0.007	inactive: -0.03	inactive: 0.001	inactive: 0.121	inactive: -0.002	inactive: -0.042	inactive: -0.038	inactive: -0.011	inactive: 0.019
PSMG4 isoform 2 (UniProt Q5JS54)	inactive: -0.053	inactive: -0.173	inactive: 0.161	inactive: -0.017	inactive: 0.027	inactive: 0	inactive: -0.106	inactive: -0.012	inactive: -0.026	inactive: 0.069
PSMD4 (UniProt P55036)	inactive: -0.041	inactive: -0.002	inactive: 0.035	inactive: -0.021	inactive: -0.013	inactive: 0.053	inactive: 0.013	inactive: 0.031	inactive: 0.027	inactive: 0.015
PTP4A2 (UniProt Q12974)	inactive: -0.038	inactive: 0.107	active: -0.332	inactive: 0.057	inactive: -0.1	inactive: -0.213	inactive: -0.143	inactive: -0.066	inactive: 0.008	inactive: 0.117
PUS7L (UniProt Q9H0K6)	inactive: -0.012	inactive: -0.016	inactive: -0.028	inactive: 0.034	inactive: -0.033	inactive: -0.038	inactive: -0.001	inactive: -0.049	inactive: 0.045	inactive: 0.01
PSMB2 (UniProt P49721)	inactive: -0.006	inactive: -0.027	inactive: 0.046	inactive: -0.026	inactive: -0.011	inactive: 0.09	inactive: 0.001	inactive: -0.007	inactive: 0.027	inactive: 0.007
QPCTL (UniProt Q9NXS2)	inactive: -0.059	inactive: 0.039	inactive: 0.025	inactive: 0.116	inactive: 0.062	inactive: -0.019	inactive: 0.135	inactive: -0.007	inactive: 0.008	inactive: 0.007
PTMS (UniProt P20962)	inactive: 0.035	inactive: -0.003	inactive: 0	inactive: 0.032	inactive: -0.008	inactive: -0.047	inactive: -0.038	inactive: -0.028	inactive: -0.031	inactive: -0.011
QTRT2 isoform 4 (UniProt Q9H974)	inactive: 0.025	inactive: 0.04	inactive: -0.03	inactive: -0.009	inactive: -0.028	inactive: -0.031	inactive: 0.036	inactive: -0.026	inactive: -0.013	inactive: -0.003
PYCARD (UniProt Q9ULZ3)	inactive: 0.101	inactive: 0.033	inactive: -0.123	inactive: -0.019	inactive: -0.022	inactive: -0.028	inactive: -0.071	inactive: 0.001	inactive: -0.003	inactive: -0.023
PSME3 isoform 2 (UniProt P61289)	inactive: 0.036	inactive: 0.014	inactive: 0.023	inactive: -0.041	inactive: -0.045	inactive: 0.004	inactive: -0.04	inactive: -0.021	inactive: -0.018	inactive: 0.055
PSMA2 (UniProt P25787)	inactive: -0.004	inactive: -0.014	inactive: 0.027	inactive: -0.004	inactive: -0.033	inactive: 0.022	inactive: 0.018	inactive: 0.028	inactive: 0.001	inactive: 0.001
PURB (UniProt Q96QR8)	inactive: 0.07	inactive: 0.018	inactive: 0.363	inactive: 0.013	inactive: 0.025	inactive: 0.12	inactive: 0.292	inactive: 0.086	inactive: 0.027	inactive: 0.081
QSOX2 (UniProt Q6ZRP7)	inactive: 0.043	inactive: -0.005	inactive: -0.018	inactive: -0.047	inactive: 0.018	inactive: -0.073	inactive: -0.07	inactive: 0.001	inactive: 0.033	inactive: -0.034
PSMA8 (UniProt Q8TAA3)	inactive: -0.04	inactive: 0.018	inactive: -0.01	inactive: -0.012	inactive: -0.01	inactive: 0.036	inactive: 0.025	inactive: 0.046	inactive: 0.021	inactive: -0.042
QSOX1 (UniProt O00391)	inactive: 0.122	inactive: 0.137	inactive: -0.066	inactive: 0.083	inactive: -0.038	inactive: -0.038	inactive: 0.068	inactive: -0.104	inactive: -0.114	inactive: -0.003
PXN (UniProt P49023)	inactive: 0.055	inactive: -0.065	inactive: 0.002	inactive: -0.011	inactive: -0.025	inactive: 0.009	inactive: -0.022	inactive: -0.085	inactive: -0.015	inactive: 0.038
PSMD14 (UniProt O00487)	inactive: -0.055	inactive: -0.076	inactive: 0.067	inactive: 0.044	inactive: 0.019	inactive: 0.062	inactive: 0.017	inactive: 0.078	inactive: 0.066	inactive: 0.014
PTPRC (UniProt P08575)	inactive: 0.074	inactive: 0.007	inactive: -0.027	inactive: -0.039	inactive: 0.028	inactive: -0.035	inactive: -0.031	inactive: 0.053	inactive: -0.001	inactive: 0.022
PSME2 (UniProt Q9UL46)	inactive: 0.023	inactive: -0.014	inactive: -0.015	inactive: -0.144	inactive: -0.016	inactive: 0.032	inactive: -0.069	inactive: -0.049	inactive: 0.033	inactive: 0.047
PTAR1 (UniProt Q7Z6K3)	inactive: 0.015	inactive: 0.071	inactive: -0.062	inactive: -0.011	inactive: 0.015	inactive: -0.139	inactive: -0.117	inactive: -0.007	inactive: 0.01	inactive: 0.142
PUM2 (UniProt Q8TB72)	inactive: -0.014	inactive: 0.022	inactive: -0.03	inactive: -0.011	inactive: 0.001	inactive: 0.043	inactive: 0.092	inactive: -0.137	inactive: -0.023	inactive: -0.038
PSMA7 (UniProt O14818)	inactive: -0.02	inactive: 0.029	inactive: 0.012	inactive: -0.034	inactive: 0.02	inactive: 0.03	inactive: 0.013	inactive: -0.01	inactive: 0.025	inactive: -0.012
PXMP2 (UniProt Q9NR77)	inactive: 0.076	inactive: 0.03	inactive: -0.022	inactive: 0.068	inactive: -0.022	inactive: 0.004	inactive: -0.014	inactive: -0.019	inactive: -0.009	inactive: -0.027
PXMP4 (UniProt Q9Y6I8)	inactive: 0.086	inactive: -0.003	inactive: 0.022	inactive: -0.058	inactive: -0.029	inactive: -0.056	inactive: 0.018	inactive: -0.023	inactive: -0.037	inactive: -0.032
PRXL2A (UniProt Q9BRX8)	inactive: 0.177	inactive: 0.071	inactive: -0.018	inactive: 0.044	inactive: -0.125	inactive: -0.039	inactive: -0.128	inactive: -0.133	inactive: -0.054	inactive: -0.119
PSAT1 (UniProt Q9Y617)	inactive: 0.072	inactive: 0.011	inactive: 0.021	inactive: -0.014	inactive: -0.014	inactive: 0.015	inactive: -0.052	inactive: -0.011	inactive: -0.015	inactive: 0.045
PZP (UniProt P20742)	inactive: 0.263	inactive: 0.069	inactive: 0.034	inactive: -0.119	inactive: 0.063	inactive: -0.063	inactive: -0.162	inactive: 0.022	inactive: -0.02	inactive: 0.121
PUDP isoform 4 (UniProt Q08623)	inactive: 0.043	inactive: -0.027	inactive: -0.03	inactive: -0.039	inactive: -0.042	inactive: -0.014	inactive: -0.059	inactive: -0.015	inactive: -0.047	inactive: -0.036

Copied from above (two entries):
Target	log2 fold change (saracatinib)	log2 fold change (sotrastaurin)	log2 fold change (alvocidib)	log2 fold change (Tubastatin A)	log2 fold change [1]	log2 fold change (defactinib)	log2 fold change (rucaparib)	log2 fold change [2]	log2 fold change (encorafenib)	log2 fold change [3]
PSAP isoform 3 (UniProt P07602)	inactive: -0.049	inactive: -0.019	inactive: 0.025	inactive: 0.024	inactive: 0.092	inactive: 0.044	inactive: -0.131	inactive: -0.034	inactive: 0.039	inactive: 0.018
PSMG2 (UniProt Q969U7)	inactive: 0.021	inactive: 0.007	inactive: -0.03	inactive: 0.001	inactive: 0.121	inactive: -0.002	inactive: -0.042	inactive: -0.038	inactive: -0.011	inactive: 0.019
